{
  "source": "PubChem BioAssay AID651640",
  "about": "(Broad Institute, 2012)",
  "note": "Among all 350,000 compounds or so, about 6,000 (1.7%) were called active. The inconclusive results got no clear call from the source; some entries with a clear call stand among them for comparison. No stated cut-off is given here; in the data, active means CPE inhibition above about 20% (passing the limit was not always enough); inconclusive means no clear call, values can overlap the other calls; tested in BHK-21 cells.",
  "data": [
    {"assay": "protection of cells from dengue 2 killing – plate reader, single concentration, primary screen (AID 651640);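 further: 0% = median of neutral control wells and 100% = median of positive control wells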", "details": "DENV2-infected cells, cytopathic effect rescue, at 9.99 µM, active compounds read high", "values": [
      {"smiles": "Cc1ccc(C(=O)C2=C(O)C(=O)N(Cc3cccnc3)C2c2ccc(OC(C)C)cc2)o1", "note": "(stereo not drawn)", "CPE inhibition": "inconclusive: 46.9%"},
      {"smiles": "COc1ccc(NC(=O)Nc2ccc3c(c2)C(=O)N([C@@H](C)CO)C[C@@H](C)[C@@H](CN(C)S(=O)(=O)c2cn(C)cn2)OCCCC[C@H](C)O3)cc1", "CPE inhibition": "inconclusive: 72.3%"},
      {"smiles": "COc1ccc2c(=O)cc(-c3ccncc3)oc2c1OC", "CPE inhibition": "active: 33.1%"},
      {"smiles": "COc1cccc(-c2ccc3n(c2=O)C[C@@H]2[C@@H](CO)[C@H](C(=O)NC4CCCC4)N[C@H]32)c1", "CPE inhibition": "inactive: 1.81%"},
      {"smiles": "O=C(c1ccccc1)N1CC(=O)N2[C@H](CO)[C@@H](c3ccc(C#CC4CC4)cc3)[C@H]2C1", "CPE inhibition": "inactive: -4.47%"},
      {"smiles": "CCOC(=O)C1CCN(C(=O)c2ccc(NS(=O)(=O)c3ccc4[nH]c(=O)[nH]c4c3)cc2)CC1", "CPE inhibition": "inconclusive: 30.4%"},
      {"smiles": "CC(C(=O)Nc1ccc2nccnc2c1)N1C(=O)C2C3C=CC(C3)C2C1=O", "note": "(stereo not drawn)", "CPE inhibition": "inconclusive: 20.7%"},
      {"smiles": "CCOC(=O)c1sc(N)nc1C(F)(F)F", "CPE inhibition": "inconclusive: 35.2%"},
      {"smiles": "COc1cc(C(=O)OCCCN2CCOCC2)cc(OC)c1OC", "CPE inhibition": "active: 49.2%"},
      {"smiles": "O=C(NC1CCCCCC1)c1ccc([N+](=O)[O-])s1", "CPE inhibition": "inconclusive: 33.7%"},
      {"smiles": "N#Cc1ccc(Cl)cc1NC(=O)CNc1cccc(S(=O)(=O)N2CCCC2)c1", "CPE inhibition": "inconclusive: 27.5%"},
      {"smiles": "CCCc1nc2ccc(Cl)cn2c1Cc1cccc(Cl)c1", "CPE inhibition": "inconclusive: 40.7%"},
      {"smiles": "CCC(C)Sc1ccc(-c2nc3cnccn3c2NC2CCCCC2)cc1", "note": "(stereo not drawn)", "CPE inhibition": "inconclusive: 63.6%"},
      {"smiles": "CSCCC(NS(=O)(=O)c1ccc2c(c1)c(=O)n(C)c(=O)n2C)C(=O)NC1CCN(Cc2ccccc2)CC1", "note": "(stereo not drawn)", "CPE inhibition": "inconclusive: 81.6%"},
      {"smiles": "C[C@H]1CN([C@@H](C)CO)C(=O)c2cc(NC(=O)c3ccncc3)ccc2O[C@H]1CN(C)C(=O)Nc1ccccc1", "CPE inhibition": "active: 64.4%"},
      {"smiles": "COc1ccc(CC(=O)Nc2cccc(C(C)=O)c2)cc1S(=O)(=O)N1CCOCC1", "CPE inhibition": "inconclusive: 20.3%"},
      {"smiles": "Cc1cccc(COC(=O)CCCNC(=O)c2ccc(Cl)cc2)c1", "CPE inhibition": "inactive: -0.369%"},
      {"smiles": "COc1ccc(NC(=O)NCc2ccc3c(c2)OCO3)c(OC)c1", "CPE inhibition": "inconclusive: 40.2%"},
      {"smiles": "CC1(c2nnc(-c3cccc(Cl)c3)o2)CC(c2cccc([N+](=O)[O-])c2)=NO1", "note": "(stereo not drawn)", "CPE inhibition": "inconclusive: 55.4%"},
      {"smiles": "C[C@H]1CN([C@@H](C)CO)C(=O)c2cc(NC(=O)CCCCCC(=O)Nc3ccccc3N)ccc2O[C@@H]1CN(C)S(=O)(=O)c1cn(C)cn1", "CPE inhibition": "inactive: -13.2%"},
      {"smiles": "CN1CCN(C(=O)C[C@H]2CC[C@H]3[C@@H](COC[C@H](O)CN3C(=O)c3ccccc3F)O2)CC1", "CPE inhibition": "inactive: -4.32%"},
      {"smiles": "O=C(Cc1ccccc1)N1C[C@H]2[C@@H](c3ccccc31)[C@H](CO)N2C(=O)c1ccc(F)cc1", "CPE inhibition": "inconclusive: 24%"},
      {"smiles": "CN(C)CC(=O)N1[C@H](C#N)[C@H](c2ccc(-c3cccc(C(=O)N(C)C)c3)cc2)[C@@H]1CO", "CPE inhibition": "inconclusive: 50.7%"},
      {"smiles": "C/C=C/c1cnc2c(c1)C(=O)N([C@H](C)CO)C[C@@H](C)[C@H](CN(C)C(=O)Nc1cccc(OC)c1)O2", "CPE inhibition": "inconclusive: -4.12%"},
      {"smiles": "Cc1ccc(NC2CCCN(C(=O)c3cnc4ccccn4c3=O)C2)cc1C", "note": "(stereo not drawn)", "CPE inhibition": "inconclusive: 42.6%"},
      {"smiles": "O=C(Nc1ccccc1)N1CCCCN2[C@H](CO)[C@H](c3ccc(-c4ccncc4)cc3)[C@H]2C1", "CPE inhibition": "active: 37.6%"},
      {"smiles": "O=C(C[C@H]1C=C[C@@H](NC(=O)c2ccncc2)[C@@H](CO)O1)Nc1ccc(-c2ccccc2)cc1", "CPE inhibition": "inactive: -8.53%"},
      {"smiles": "CCCCn1nc(C(=O)Nc2ccc3c(c2)OCO3)c2ccccc2c1=O", "CPE inhibition": "active: 36.2%"},
      {"smiles": "C[C@@H]1CN([C@H](C)CO)C(=O)c2cc(NC(=O)Cn3cnnn3)ccc2O[C@@H]1CN(C)S(=O)(=O)c1cccs1", "CPE inhibition": "inactive: 9.54%"},
      {"smiles": "CCCCCSc1nnc(N)s1", "CPE inhibition": "active: 31.9%"},
      {"smiles": "Cc1noc(C)c1S(=O)(=O)Nc1ccc2c(c1)C(=O)N([C@H](C)CO)C[C@H](C)[C@H](CN(C)Cc1ccc(-c3ccccc3)cc1)O2", "CPE inhibition": "inactive: -5.7%"},
      {"smiles": "O=C(CN1C(=O)S/C(=C\\c2ccc(F)cc2)C1=O)NCCCn1ccnc1", "CPE inhibition": "inconclusive: 24.4%"},
      {"smiles": "O=C(CSc1nc2ccccc2c(=O)[nH]1)Nc1ccc(N2CCOCC2)cc1", "CPE inhibition": "inconclusive: 44.3%"},
      {"smiles": "C[C@H](CO)N1C[C@H](C)[C@@H](CN(C)S(=O)(=O)c2cn(C)cn2)Oc2ccc(NC(=O)Nc3ccc(C(F)(F)F)cc3)cc2C1=O", "CPE inhibition": "inactive: 7.46%"},
      {"smiles": "Cc1ccc2nc(SCC(=O)N3CCCCC3)nc(=O)n2c1", "CPE inhibition": "inconclusive: 23.6%"},
      {"smiles": "O=C1O[C@H](c2ccccc2)[C@H](c2ccccc2)N2[C@H]1[C@@H](C(=O)N1CCCCCCC1)[C@]1(C(=O)Nc3ccccc31)[C@H]2c1ccccc1OCCO", "CPE inhibition": "active: 42.3%"},
      {"smiles": "COc1ccc(OC)c(S(=O)(=O)N(C(C)=O)c2ccc3oc(=O)sc3c2)c1", "CPE inhibition": "inactive: 0.505%"},
      {"smiles": "COc1ccc(S(=O)(=O)NCC(c2ccc(F)cc2)N2CCN(C)CC2)cc1", "note": "(stereo not drawn)", "CPE inhibition": "inconclusive: 28.3%"},
      {"smiles": "C/C=C/c1ccc([C@H]2[C@@H](CO)N3CCCCN(C)C[C@H]23)cc1", "CPE inhibition": "active: 54.1%"},
      {"smiles": "O=C(Nc1ccc(-c2ccccc2)cc1)[C@H]1[C@H](CO)[C@H]2Cn3c(cccc3=O)[C@H]2N1CC1CCCCC1", "CPE inhibition": "inactive: 11.1%"},
      {"smiles": "C[C@H](CO)N1C[C@H](C)[C@@H](CN(C)C)OCCCC[C@H](C)Oc2ccc(NC(=O)Nc3ccccc3)cc2C1=O", "CPE inhibition": "inconclusive: 74.9%"},
      {"smiles": "COc1cc(C(=O)NNC(=O)c2cc(-c3ccccc3)n[nH]2)cc(OC)c1C", "CPE inhibition": "inactive: -1.54%"},
      {"smiles": "Cc1ccc(S(=O)(=O)N(C)C[C@H]2Oc3cc(C#Cc4ccncc4)ccc3S(=O)(=O)N([C@H](C)CO)C[C@@H]2C)cc1", "CPE inhibition": "inconclusive: 48.2%"},
      {"smiles": "CC(=O)NC(=S)Nc1ccc(NC(=S)NC(=O)c2cccs2)cc1", "CPE inhibition": "inactive: -3.35%"},
      {"smiles": "CCOC(=O)C1=C(C)N(C[C@@H]2CC[C@@H](Cc3ccc4cc(OC)ccc4c3)O2)C(=O)NC1c1ccc(OC)cc1", "note": "(stereo partly drawn)", "CPE inhibition": "inactive: -5.95%"},
      {"smiles": "Cc1noc(C)c1S(=O)(=O)Nc1ccc2c(c1)C(=O)N([C@@H](C)CO)C[C@H](C)[C@H](CN(C)Cc1ccc(C(=O)O)cc1)OCCCC[C@@H](C)O2", "CPE inhibition": "active: 49.7%"},
      {"smiles": "CCCCCN(C(=O)CCC(=O)OCC(=O)c1ccc(C(C)(C)C)cc1)c1c(N)n(CCCC)c(=O)[nH]c1=O", "CPE inhibition": "inactive: 0.558%"},
      {"smiles": "COc1ccc(Cl)cc1NC(=O)CCN1CCN(Cc2ccccc2)CC1", "CPE inhibition": "inconclusive: 23.1%"},
      {"smiles": "COc1ccccc1C#Cc1ccc([C@H]2[C@@H](C#N)N(C(=O)C3CCCC3)[C@@H]2CO)cc1", "CPE inhibition": "inconclusive: 40%"},
      {"smiles": "CN(NC(=O)c1ccccc1)c1ncc(C(F)(F)F)cc1Cl", "CPE inhibition": "inconclusive: 20.2%"},
      {"smiles": "O=C(Nc1ccn(CC(=O)N2CCN(c3ccccn3)CC2)c(=O)n1)OCc1ccccc1", "CPE inhibition": "active: 119%"},
      {"smiles": "CC(=O)Nc1ccc(NC(=O)C2CCN(C(=O)NC3CCCCC3)CC2)cc1", "CPE inhibition": "inconclusive: 28.9%"},
      {"smiles": "O=C(NNC(=O)c1cc(Cl)ccc1O)c1cccc(S(=O)(=O)N2CCOCC2)c1", "CPE inhibition": "inconclusive: 37.2%"},
      {"smiles": "O=[N+]([O-])c1ccc2[nH]c(O)c(N=NC3CCS(=O)(=O)C3)c2c1", "note": "(stereo not drawn)", "CPE inhibition": "inactive: 1.85%"},
      {"smiles": "Cc1cccc2[nH]c(CN(C)C(=O)C3CCC(=O)N(CCc4ccccc4)C3)nc12", "note": "(stereo not drawn)", "CPE inhibition": "inconclusive: 26.2%"},
      {"smiles": "Cc1ccccc1S(=O)(=O)N1CCCCN2[C@H](CO)[C@H](c3ccc(-c4ccccc4)cc3)[C@@H]2C1", "CPE inhibition": "inconclusive: 28.2%"},
      {"smiles": "O=C(O)CCN1c2ccccc2Sc2ccccc21", "CPE inhibition": "inactive: -5.57%"},
      {"smiles": "COc1cc(NC(=O)[C@@H](Cc2ccccc2)NC(=O)[C@H]2O[C@@H](n3ccc(N)nc3=O)[C@H](O)[C@@H]2O)cc(OC)c1OC", "CPE inhibition": "inconclusive: 21.4%"},
      {"smiles": "COC1=C(Nc2ccc(C)cc2)C(=O)c2ccccc2C1=O", "CPE inhibition": "inconclusive: 21%"},
      {"smiles": "Cc1ccc(-c2ccccc2[C@@H]2[C@@H](C#N)N(C(=O)NC3CCCC3)[C@H]2CO)cc1", "CPE inhibition": "inconclusive: 32.9%"},
      {"smiles": "C[C@H](CO)N1C[C@H](C)[C@@H](CN(C)Cc2ccncc2)Oc2ccc(NC(=O)CCCCCC(=O)Nc3ccccc3N)cc2CC1=O", "CPE inhibition": "active: 53.2%"},
      {"smiles": "C[C@H]1CN([C@@H](C)CO)C(=O)c2cccc(NC(=O)C3CC3)c2O[C@H]1CN(C)Cc1ccncc1", "CPE inhibition": "inconclusive: 23.5%"},
      {"smiles": "CC(=O)c1c(O)cc(O)cc1CC(=O)O", "CPE inhibition": "inconclusive: 76.9%"},
      {"smiles": "Cc1cc2[nH]c3c4ccccc4nc(C)c3c2cc1C", "CPE inhibition": "inactive: -17.7%"},
      {"smiles": "COC(=O)[C@H](C)N(Cc1ccc(Cl)c(Cl)c1)S(=O)(=O)CCN1CCN(c2ccccc2)CC1", "CPE inhibition": "inconclusive: 25.5%"},
      {"smiles": "O=C(c1cccc(F)c1)N1C[C@@H]2[C@H](c3ccccc31)[C@H](CO)N2C(=O)C1CCOCC1", "CPE inhibition": "active: 22.6%"},
      {"smiles": "COCC(=O)N(C)C[C@H]1Oc2cc(-c3ccncc3)ccc2S(=O)(=O)N([C@H](C)CO)C[C@H]1C", "CPE inhibition": "active: 74.4%"},
      {"smiles": "COCC(=O)Nc1ccc2c(c1)[C@H]1C[C@H](CC(=O)NCc3cc(F)ccc3F)O[C@H](CO)[C@H]1O2", "CPE inhibition": "inactive: 3.28%"},
      {"smiles": "Cc1nccn1CCC(=O)Nc1ccc(Cl)cc1", "CPE inhibition": "inactive: 5.39%"},
      {"smiles": "N#C[C@@H]1[C@H](c2ccccc2-c2cccc(F)c2)[C@@H](CO)N1C(=O)C1CC1", "CPE inhibition": "inconclusive: 40.7%"},
      {"smiles": "COc1ccc2oc(C(=O)N3CCN(S(=O)(=O)c4c(C)c(C)cc(C)c4C)CC3)c(C)c2c1", "CPE inhibition": "inconclusive: 31.4%"},
      {"smiles": "Cc1nc2c(nc1C)C(=O)c1ccccc1C2=O", "CPE inhibition": "inconclusive: 22.1%"},
      {"smiles": "O=C(NCc1cccc(F)c1)Nc1nnc([C@H]2C[C@H](O)[C@@H](CO)O2)s1", "CPE inhibition": "active: 31.2%"}
    ]}
  ]
}
